For experiment [1], the target named is HA-MGA_0676 (expressed in HEK293T cells) (Mycoplasma gallisepticum (strain BJ44T)). Description: co-IP; HEK293T cells co-transfected with HA and Myc plasmids, 24 h; non-denaturing lysate; IP with anti-HA antibody and protein A/G agarose; blot with anti-HA or anti-Myc.
Experiment [2] deals with M. gallisepticum MGA_0676 (native, from infecting bacteria) (Mycoplasma gallisepticum (strain BJ44T)). In words: co-IP; DF-1 cells infected with M. gallisepticum (MOI = 10) for 36 h or PBS; IP with anti-MGA_0676 antibody; blot with anti-NAE.
Experiment [3] concerns the target HA-MGA_0676 (expressed in DF-1 cells) (Mycoplasma gallisepticum (strain BJ44T)). In words: co-IP; DF-1 cells transfected with pCMV-HA-MGA_0676 or empty vector, 24 h; IP with anti-HA antibody; blot with anti-NAE (endogenous NAE).
Experiment [4] shares this target. Description: co-IP; DF-1 cells co-transfected with HA and Myc plasmids, 24 h; non-denaturing lysate; IP with anti-HA antibody; blot with anti-HA or anti-Myc.

We go through four molecules from PMC5893762.

No constants are given. Whether binding was seen depends on the method and setting. Binding seen in cells or lysates may run through a third protein. A result given as binding can be weak or reduced; the word gives no strength. For some assays here: Where a sequence is shown, tags or fusion partners need not be part of it.

B1: Myc-NAE (NEDD8-activating enzyme E1 regulatory subunit, expressed in HEK293T cells) (protein, UniProt Q5ZIE6 1-535)
chain: MAQPGRASLKEQRYDRQLRLWGDHGQEALESAHVCVINATATGTEILKNLVLPGIGSFTIVDGNRVSGEDVGNNFFLQKSHIGQSRAQSATELLQELNNDVSGNFVEESPETLLDNDPSFFNRFNLVVATQLSESTVLRLAELLWNSNIPLLICRTYGLVGYMRIIIKEHPVVESHPDNALEDLRLDKQFPELTEHIQSYDLDHMDKKDHSHTPWIVIVAKYLTKWFNEKSDQLPKSYKEKEAFRQLIRQGILKNENGTPEDEENFEEAIKNVNTALNTTKIPRCIEEIFNDDCCVNLTEQSPSFWILVRAVKEFVANEGQGCLPVRGTIPDMIADSSKFIKLQNVYREKAKRDIAAVGNHAAKLLQSLGKAPESISERELKLLCSNSAFLRVVRCRSLSEEYGLNTFNKDEIISNMDNPDSEVVLYLMLRAVDRFYKQHGRYPGVYNYQVEDDIGKLKSCLTSFLQEHGLSVLVKDDYVHEFCRYGAAEPHAIAAFMGGAAAQEIIKVITGQFVIFNNTYIYSGMSQTSATFQL
With B1, in experiment [1], the binding entry was “binds”.

B2: endogenous NAE (NEDD8-activating enzyme E1 regulatory subunit) of DF-1 cells (protein, UniProt Q5ZIE6 1-535)
chain: B1 chain
With B2, the binding result in experiment [2] and in experiment [3] was “binds” each time.

B3: Myc-NAE (NEDD8-activating enzyme E1 regulatory subunit, expressed in DF-1 cells) (protein, UniProt Q5ZIE6 1-535)
chain: B1 chain
Regarding B3, the binding result in experiment [4] is “binds”.

B4: Myc-NAE^ΔThif (protein, UniProt Q5ZIE6)
chain: MAQPGRASLKEQRYDRQLRLWGDHGQEAIKEHPVVESHPDNALEDLRLDKQFPELTEHIQSYDLDHMDKKDHSHTPWIVIVAKYLTKWFNEKSDQLPKSYKEKEAFRQLIRQGILKNENGTPEDEENFEEAIKNVNTALNTTKIPRCIEEIFNDDCCVNLTEQSPSFWILVRAVKEFVANEGQGCLPVRGTIPDMIADSSKFIKLQNVYREKAKRDIAAVGNHAAKLLQSLGKAPESISERELKLLCSNSAFLRVVRCRSLSEEYGLNTFNKDEIISNMDNPDSEVVLYLMLRAVDRFYKQHGRYPGVYNYQVEDDIGKLKSCLTSFLQEHGLSVLVKDDYVHEFCRYGAAEPHAIAAFMGGAAAQEIIKVITGQFVIFNNTYIYSGMSQTSATFQL
On to B4, for which the binding result in experiment [1] is listed as “no binding”.
